Data as given in PubChem BioAssay AID1224826 (NIAID, 2016).
Purpose: 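Genes that change LPS-induced Tnf promoter activity in mouse macrophages when knocked down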 (primary screen). Cell system: RAW264.7 G9 macrophages from mouse bearing reporters for p65 (GFP) and the Tnf promoter (mCherry). Reagent: siRNA pool against mouse genes, 100 nM. Timing: 16 h of LPS stimulation, after 2 days of siRNA transfection. Treatment: bacterial lipopolysaccharide (Salmonella minnesota R595), 10 ng/ml. Detection: 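Imaged Tnf reporter mCherry in nuclei, minus background, normalised per plate to the median and expressed as robust z-scores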. Scale: Tnf reporter robust z-score: higher = stronger Tnf promoter reporter signal after LPS. Hit rule: 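Called active when robust z-score is at most -1.3, matching the median of the Tlr4 knock-down control, or over 3; control wells and wells with under 50 cells never active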. Meaning of the calls: active = Tnf reporter clearly lowered or raised; inactive = no clear change in Tnf reporter.
Shown is a random part of about 17,000 reagents tested. Over the whole deposit, about 1,110 (6.6%) are marked active. 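Active means lowered or raised reporter signal; replicate intensities are raw and not normalised per plate.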 Not all columns of the deposit are shown.

Npm3: Tnf reporter robust z-score = -0.26; fewer than 50 cells in well = enough cells in well; activity call = inactive
Cpa4: Tnf reporter robust z-score = 0.4; fewer than 50 cells in well = enough cells in well; activity call = inactive
Tnf: Tnf reporter robust z-score = -1.49; fewer than 50 cells in well = enough cells in well; activity call = active
Krtap13-20: fewer than 50 cells in well = fewer than 50 cells per well; well left out of calls; activity call = inactive
Bloc1s5: Tnf reporter robust z-score = -0.05; fewer than 50 cells in well = enough cells in well; activity call = inactive
Airn: Tnf reporter robust z-score = 0.4; fewer than 50 cells in well = enough cells in well; activity call = inactive
1110006O24Rik: fewer than 50 cells in well = fewer than 50 cells per well; well left out of calls; activity call = inactive
Ndufc2: Tnf reporter robust z-score = 1.1; fewer than 50 cells in well = enough cells in well; activity call = inactive
Git1: Tnf reporter robust z-score = -0.75; fewer than 50 cells in well = enough cells in well; activity call = inactive
Itgal: Tnf reporter robust z-score = -0.59; fewer than 50 cells in well = enough cells in well; activity call = inactive
Hspa4: Tnf reporter robust z-score = -0.26; fewer than 50 cells in well = enough cells in well; activity call = inactive
Zc3hav1: Tnf reporter robust z-score = -0.67; fewer than 50 cells in well = enough cells in well; activity call = inactive

Reprinted from above for reference:
Airn: Tnf reporter robust z-score = 0.4; fewer than 50 cells in well = enough cells in well; activity call = inactive
1110006O24Rik: fewer than 50 cells in well = fewer than 50 cells per well; well left out of calls; activity call = inactive
